Some of the results follow. These are further read-outs of the screen, such as a control signal, another cell line or another target. No call is given for them. Compounds called inactive in the main read-out are mostly missing here. Potencies come from curve fits of mixed quality, noted in brackets.
Assay: IkB Signaling
Conditions: ABC-DLBCL IkBa-CBG/CBR dual luciferase ratio (green luciferase fused to IkBa over red control in OCI-Ly3 lymphoma cells), 4 h; measured here: control luc red channel unless noted
How it was run: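 In this assay, an IκBα–CBG68 fusion accumulates when IKK-driven degradation is blocked; native CBR normalizes for cell number. OCI-Ly3 cells were treated 4 h with compound and doxycycline, then green and red light read after Chroma-Glo addition.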

Compound | AC50
COc1ccc(CNc2ncnc3c2cnn3-c2ccc(Cl)cc2)cc1 | 3.98 µM [rising, partial curve, poor fit]
COc1ccc(Nc2ccc3cc(S(=O)(=O)N4CCCC4)ccc3n2)cc1OC | 0.794 µM [rising, full curve]
N#Cc1nc(-c2ccco2)oc1NCCc1ccccc1 | 0.794 µM [rising, full curve, poor fit]
Cc1cc(N2CCN(C)CC2)nc2ccc(NC(=O)Nc3ccc(F)cc3F)cc12 | 20 µM [falling, partial curve]
COc1ccc(S(=O)(=O)N2CC(O)CC2C(=O)OCC(=O)Nc2ccc(Cl)cn2)cc1 (configuration not stated) | 5.01 µM [falling, partial curve]
Cc1ccc2[nH]c(=O)c3cc(C(=O)NCc4cccc(Cl)c4)sc3c2c1 | 31.6 µM [falling, single point]
COc1ccccc1-c1noc(CSc2nnc(-c3ccccc3)n2-c2ccc(C)c(C)c2)n1 | 15.8 µM [falling, partial curve]
CC(=O)c1ccc(NC(=O)CSc2nc(-c3ccccc3C)nc3c2c(=O)n(C)c(=O)n3C)cc1 | 0.398 µM [falling, full curve]
CCOC(=O)c1c(C)oc2nc(C)nc(N(C)Cc3ccccc3)c12 | 15.8 µM [falling, single point]
O=C(CSc1ncc(-c2ccc(Cl)cc2)[nH]1)Nc1ccccc1F | 3.98 µM [rising, single point]
Cc1ccc(S(=O)(=O)N2CCCC2C(=O)Nc2ccc(Br)cc2)cc1 (configuration not stated) | 15.8 µM [falling, single point]
O=C(C1CCCN(S(=O)(=O)c2cccc3nonc23)C1)N1CCN(c2cccc(C(F)(F)F)c2)CC1 (configuration not stated) | 15.8 µM [falling, partial curve]
O=C(c1cc(-c2cccs2)on1)N1CCN(c2ccccc2)CC1 | 0.1 µM [falling, full curve]
COc1ccccc1N1CCN(c2c(CN3CCCC3)c(=O)oc3ccccc23)CC1 | 5.01 µM [falling, partial curve]
COC(=O)c1ccc(COC(=O)c2c(C)nn(Cc3ccccc3Cl)c2Cl)o1 | 15.8 µM [falling, partial curve]
Cc1ccc(-n2nnnc2SCC(=O)N2CCc3ccccc3C2)cc1 | 31.6 µM [falling, single point]
O=C(C1CC1)N1CCc2cc(S(=O)(=O)NCCC3=CCCCC3)ccc21 | 15.8 µM [falling, partial curve]
Cc1ccc(OCC(=O)N(Cc2nc(-c3ccccc3)no2)C(C)C)cc1C | 39.8 µM [falling, partial curve]
CCCOc1ccc(C(=O)N2CCN(c3ccc(N)cc3Cl)CC2)cc1 | 25.1 µM [falling, single point]
Cc1ccc(S(=O)(=O)N2CCCc3cc(NS(=O)(=O)c4ccccc4)ccc32)cc1 | 39.8 µM [falling, single point]
COC(=O)c1ccc([C@H]2Nc3ccc(S(=O)(=O)Nc4ccc(F)cc4)cc3[C@H]3C=CC[C@H]32)cc1 | 15.8 µM [falling, partial curve]

Reprinted at random: five records from the list, in no set order.
Compound | AC50
O=C(C1CC1)N1CCc2cc(S(=O)(=O)NCCC3=CCCCC3)ccc21 | 15.8 µM [falling, partial curve]
N#Cc1nc(-c2ccco2)oc1NCCc1ccccc1 | 0.794 µM [rising, full curve, poor fit]
Cc1cc(N2CCN(C)CC2)nc2ccc(NC(=O)Nc3ccc(F)cc3F)cc12 | 20 µM [falling, partial curve]
O=C(CSc1ncc(-c2ccc(Cl)cc2)[nH]1)Nc1ccccc1F | 3.98 µM [rising, single point]
CCOC(=O)c1c(C)oc2nc(C)nc(N(C)Cc3ccccc3)c12 | 15.8 µM [falling, single point]

Additional compounds follow.

Compound | AC50
CCC(=O)N1c2ccccc2C(C)(c2ccccc2)CC1(C)C (configuration not stated) | 10 µM [falling, partial curve]
CC(C)(C)OC(=O)N1CCC(c2c(C(=O)NCc3ccccc3)cnn2-c2ccc(F)cc2)CC1 | 12.6 µM [falling, partial curve]
Cc1ccc(NC(=O)c2cc(S(=O)(=O)N3CCCCCC3)ccc2F)cc1F | 1.26 µM [falling, full curve]
CC(C)Oc1ccc(NC(=O)c2cc3ccccc3o2)cc1 | 25.1 µM [falling, single point]
C/C(N)=C(/C#N)C(=O)CSc1nnnn1-c1ccc(C)cc1C | 12.6 µM [falling, partial curve]
COc1ccc(CCNc2oc(COc3cccc(C)c3)nc2C#N)cc1OC | 20 µM [falling, partial curve]
Cc1sc2c(c1C)c(=O)n(Cc1ccccc1)c(=O)n2CC(=O)N(C)c1ccccc1 | 15.8 µM [falling, partial curve]
CCCNC(=O)c1cnn2c(C(F)F)cc(-c3ccccc3)nc12 | 39.8 µM [falling, single point]
O=C(COc1cccc(Cl)c1)N1CCC(c2nc3ccccc3o2)CC1 | 31.6 µM [falling, single point]
Cc1nc2c(-c3ccccc3)c(C)nn2c(C)c1CCC(=O)NCCc1ccccc1 | 39.8 µM [falling, single point]
CC(C)c1ccc(NC(=O)N2CCN(c3ccc(Cl)c(Cl)c3)CC2)cc1 | 5.01 µM [falling, partial curve]
Cc1ccc(N2CCN(C(=O)c3c(C)oc4ncnc(N5CCCCC5)c34)CC2)c(C)c1 | 15.8 µM [falling, single point]
CCOC(=O)c1cccc(NC(=O)CCc2nc(-c3ccccc3F)no2)c1 | 12.6 µM [falling, partial curve]
C=C(C)Cn1c(N2CCC(Cc3ccccc3)CC2)nc2c1c(=O)[nH]c(=O)n2C | 39.8 µM [falling, single point]
O=C(NC1CC(=O)N(c2ccc(Cl)cc2)C1)C1CCCC1 (configuration not stated) | 3.98 µM [rising, single point]
COc1ccc(NC(=O)CSc2nc3c(oc4ccccc43)c(=O)n2-c2ccccc2)cc1OC | 39.8 µM [falling, single point]
CCC(C)NC(=O)c1ccc2c(c1)nc1n2CCCCC1 (configuration not stated) | 25.1 µM [falling, single point]
COc1ccccc1CNC(=O)CCCCn1c(=O)c2ccccc2n(Cc2ccccc2C)c1=O | 3.98 µM [rising, partial curve, poor fit]
COCCN1Cc2cccc(C(=O)Nc3ccc4c(c3)OCCO4)c2C1=O | 1 µM [rising, full curve, poor fit] [measured here: IkB-luc green channel]
CC(=O)c1c(C)n(-c2ccc(Cl)cc2)c2ccc(OC(=O)COc3ccccc3)cc12 | 10 µM [falling, partial curve]
Cc1nc(CC(=O)Nc2nc(-c3ccccc3)cs2)cs1 | 31.6 µM [falling, partial curve]

Compound | AC50
CCCOC(=O)c1ccc(Oc2c(-c3ccc(OCC)cc3O)n[nH]c2C)cc1 | 15.8 µM [falling, partial curve]
CN(Cc1ccccc1)S(=O)(=O)c1nnc(NC(=O)c2ccccc2Cl)s1 | 12.6 µM [falling, partial curve]
O=C(Nc1ccc(Cl)cc1C(=O)O)c1ccc2c(c1)C(=O)N(Cc1ccco1)C2=O | 2 µM [falling, full curve]
Cc1ccc(-n2nnnc2SCC(=O)Nc2cccc(NC(=O)c3ccco3)c2)cc1C | 12.6 µM [falling, partial curve]
CC1CCN(S(=O)(=O)c2ccc3c(ccc(=O)n3CC(=O)NCc3ccc(Cl)cc3)c2)CC1 | 0.316 µM [falling, full curve]
CCOc1ccc(Nc2nc3c(S(=O)(=O)c4ccc(CC)cc4)nnn3c3ccc(Cl)cc23)cc1 | 3.98 µM [rising, full curve]
CC1=C(/C=C/C(C)=C/C=C/C(C)=C/C(=O)Nc2ccc(O)cc2)C(C)(C)CCC1 | 1.26 µM [rising, full curve, poor fit] [measured here: IkB-luc green channel]
CC(=O)N1CCc2cc(Br)cc(S(=O)(=O)NCCc3ccc(Cl)cc3)c21 | 15.8 µM [falling, partial curve]
CC(=O)c1cccc(NC(=O)CCc2nc3cccnc3n2Cc2cccs2)c1 | 39.8 µM [falling, single point]
COc1ccc(CCNc2nc3ccc(C)cc3n3cnnc23)cc1OC | 3.16 µM [rising, partial curve]
O=C(c1cccn1-c1nnc(N2CCCCC2)s1)N1CCN(c2ccc(Cl)cc2)CC1 | 25.1 µM [falling, partial curve]
Cc1occc1-c1nnc(SCC(=O)Nc2ccccc2)n1C(C)c1ccccc1 (configuration not stated) | 39.8 µM [falling, single point]
CCc1c(C)nc2ncnn2c1N1CCCC(C(=O)NCc2ccc3c(c2)OCO3)C1 (configuration not stated) | 39.8 µM [falling, single point]
COc1ccc(Cl)cc1N=C1NC(=O)CC(C(=O)Nc2ccccc2C(F)(F)F)S1 (configuration not stated) | 12.6 µM [falling, partial curve]
COC(=O)c1ccc(OC)c(CSc2nnc(COc3ccc(Cl)cc3)o2)c1 | 12.6 µM [falling, partial curve]
COc1ccc(S(=O)(=O)N(CC(=O)Nc2cc(C)cc(C)c2)c2ccc(Cl)cc2)cc1 | 2.51 µM [falling, full curve, poor fit]
CCn1c(C(=O)N2CCC(C(=O)N3CCN(c4ccc(OC)cc4)CC3)CC2)cc2sccc21 | 31.6 µM [falling, single point]
CCc1ccccc1N1CC(c2nc3ccccc3n2CCOc2ccc(Cl)c(C)c2)CC1=O (configuration not stated) | 15.8 µM [falling, partial curve]
CN(C)c1ccc(C(=O)Nc2c(C(=O)NC(C)(C)C)oc3ccccc23)cc1 | 25.1 µM [falling, single point]
CC1=C(c2ccc(Cl)cc2)S(=O)(=O)N=C1N1CCN(c2cc(C)ccc2C)CC1 | 6.31 µM [rising, partial curve]

Source: PubChem BioAssay AID445 (National Center for Advancing Translational Sciences (NCATS), 2006)
